Target: rat CB1 receptor (Rattus norvegicus, UniProt P20272)
Assay: Radioligand competitive binding assay, rat CB1

Protein sequences, listed by entry. Tags and fused reporters are not part of them.
UniProt P20272, whole entry: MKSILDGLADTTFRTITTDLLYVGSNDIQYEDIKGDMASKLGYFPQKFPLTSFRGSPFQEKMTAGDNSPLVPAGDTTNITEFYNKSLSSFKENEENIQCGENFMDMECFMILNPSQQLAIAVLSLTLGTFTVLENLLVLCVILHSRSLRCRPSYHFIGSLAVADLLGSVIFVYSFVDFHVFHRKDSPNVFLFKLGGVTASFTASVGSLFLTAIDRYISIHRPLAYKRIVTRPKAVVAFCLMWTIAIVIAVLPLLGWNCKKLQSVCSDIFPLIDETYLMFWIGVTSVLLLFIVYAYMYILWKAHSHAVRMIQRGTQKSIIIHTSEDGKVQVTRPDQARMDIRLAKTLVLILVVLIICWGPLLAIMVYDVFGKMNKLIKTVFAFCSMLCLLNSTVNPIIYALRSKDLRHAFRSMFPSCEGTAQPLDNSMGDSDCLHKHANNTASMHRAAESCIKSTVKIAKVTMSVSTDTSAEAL

In the case of `Cc1c(C(=O)NN2CCCCC2)nn(-c2ccc(Cl)cc2Cl)c1-c1ccc(I)cc1` [AM251, N-(piperidin-1-yl)-5-(4-iodophenyl)-1-(2,4-dichlorophenyl)-4-methyl-1H-pyrazole-3-carboxamide, reference compound], the Ki is reported as 0.58 ± 0.04 nM.
